Article PMC7042299
Results are given in words; binding and its absence hold for the method and conditions named. Binding seen in cells or lysates may run through a third protein. Some results given as binding are weak or reduced against the parent protein; the word gives no strength. Sequences can lack the tags named with a protein.

Target: T1, T7-DHX34 p.Arg897Cys (human) (UniProt Q14147)
T1 sequence: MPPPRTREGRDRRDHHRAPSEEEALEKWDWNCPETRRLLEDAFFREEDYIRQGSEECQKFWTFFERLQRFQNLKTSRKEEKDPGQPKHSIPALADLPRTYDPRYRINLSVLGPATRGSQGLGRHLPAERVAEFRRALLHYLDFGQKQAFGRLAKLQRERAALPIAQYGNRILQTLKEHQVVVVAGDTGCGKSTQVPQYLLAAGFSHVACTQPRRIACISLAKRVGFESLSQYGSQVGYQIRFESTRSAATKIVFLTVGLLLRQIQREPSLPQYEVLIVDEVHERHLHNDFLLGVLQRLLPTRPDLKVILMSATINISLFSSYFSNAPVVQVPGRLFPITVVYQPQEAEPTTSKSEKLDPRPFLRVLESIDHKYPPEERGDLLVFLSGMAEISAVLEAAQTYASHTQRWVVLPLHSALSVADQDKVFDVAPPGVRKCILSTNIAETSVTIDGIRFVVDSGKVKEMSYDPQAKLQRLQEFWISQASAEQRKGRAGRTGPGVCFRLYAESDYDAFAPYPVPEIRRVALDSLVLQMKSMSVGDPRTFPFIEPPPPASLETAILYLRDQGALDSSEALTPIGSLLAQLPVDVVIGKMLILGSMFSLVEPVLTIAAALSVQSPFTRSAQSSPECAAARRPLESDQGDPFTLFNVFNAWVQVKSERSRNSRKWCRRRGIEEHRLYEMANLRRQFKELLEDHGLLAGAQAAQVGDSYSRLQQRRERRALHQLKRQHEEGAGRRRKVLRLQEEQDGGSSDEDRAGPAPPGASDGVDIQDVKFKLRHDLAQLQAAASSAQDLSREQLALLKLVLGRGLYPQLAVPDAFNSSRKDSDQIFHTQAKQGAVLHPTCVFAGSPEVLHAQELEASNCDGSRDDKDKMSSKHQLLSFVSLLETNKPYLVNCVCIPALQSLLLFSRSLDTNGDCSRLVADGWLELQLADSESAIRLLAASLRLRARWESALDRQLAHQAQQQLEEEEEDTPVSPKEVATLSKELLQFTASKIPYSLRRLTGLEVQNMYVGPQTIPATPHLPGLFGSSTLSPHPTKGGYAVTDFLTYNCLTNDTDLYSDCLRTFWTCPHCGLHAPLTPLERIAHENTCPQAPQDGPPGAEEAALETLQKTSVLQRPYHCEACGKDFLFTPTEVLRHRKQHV
Assay: co-IP; HEK293T cells co-transfected with T7-DHX34 (wild type or variant) and FLAG-UPF1; anti-T7 immunoprecipitates probed for UPF1

binding: binds
B1: FLAG-UPF1 (pcIneo-FLAG-UPF1) (protein, UniProt Q92900 1-1129)
chain: MSVEAYGPSSQTLTFLDTEEAELLGADTQGSEFEFTDFTLPSQTQTPPGGPGGPGGGGAGGPGGAGAGAAAGQLDAQVGPEGILQNGAVDDSVAKTSQLLAELNFEEDEEDTYYTKDLPIHACSYCGIHDPACVVYCNTSKKWFCNGRGNTSGSHIVNHLVRAKCKEVTLHKDGPLGETVLECYNCGCRNVFLLGFIPAKADSVVVLLCRQPCASQSSLKDINWDSSQWQPLIQDRCFLSWLVKIPSEQEQLRARQITAQQINKLEELWKENPSATLEDLEKPGVDEEPQHVLLRYEDAYQYQNIFGPLVKLEADYDKKLKESQTQDNITVRWDLGLNKKRIAYFTLPKTDSGNEDLVIIWLRDMRLMQGDEICLRYKGDLAPLWKGIGHVIKVPDNYGDEIAIELRSSVGAPVEVTHNFQVDFVWKSTSFDRMQSALKTFAVDETSVSGYIYHKLLGHEVEDVIIKCQLPKRFTAQGLPDLNHSQVYAVKTVLQRPLSLIQGPPGTGKTVTSATIVYHLARQGNGPVLVCAPSNIAVDQLTEKIHQTGLKVVRLCAKSREAIDSPVSFLALHNQIRNMDSMPELQKLQQLKDETGELSSADEKRYRALKRTAERELLMNADVICCTCVGAGDPRLAKMQFRSILIDESTQATEPECMVPVVLGAKQLILVGDHCQLGPVVMCKKAAKAGLSQSLFERLVVLGIRPIRLQVQYRMHPALSAFPSNIFYEGSLQNGVTAADRVKKGFDFQWPQPDKPMFFYVTQGQEEIASSGTSYLNRTEAANVEKITTKLLKAGAKPDQIGIITPYEGQRSYLVQYMQFSGSLHTKLYQEVEIASVDAFQGREKDFIILSCVRANEHQGIGFLNDPRRLNVALTRARYGVIIVGNPKALSKQPLWNHLLNYYKEQKVLVEGPLNNLRESLMQFSKPRKLVNTINPGARFMTTAMYDAREAIIPGSVYDRSSQGRPSSMYFQTHDQIGMISAGPSHVAAMNIPIPFNLVMPPMPPPGYFGQANGPAAGRGTPKGKTGRGGRQKNRFGLPGPSQTNLPNSQASQDVASQPFSQGALTQGYISMSQPSQMSQPGLSQPELSQDSYLGDEFKSQIDVALSQDSTYQGERAYQHGGVTGLSQY
